Experimental findings from PubChem BioAssay AID1508600 (Functional Genomics Laboratory (NCATS/FGL), 2020) are described below.

Out of some 53,000 sequences screened, about 3,700 (7%) were called active.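 How the source made its calls: active means gene knockdowns whose robust z-score for IL-1 alpha signal is at least 2 or at most -2, so actives lie on both sides; inactive means the rest.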 The list shows a part of the results.

This test is described as follows: Components of the Cytosolic LPS Sensing Pathway: Gene Identification via Genome-wide siRNA Screen.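 Further: robust z of the log signal after scaling to non-targeting control siRNA wells of the plate.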 The settings on record: RAW264.7 macrophages, IL-1a HTRF, actives lie on both sides, screened at 100 nM (by protocol), cells primed 5 h with Pam3CSK4 first. Put shortly:
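Supernatant IL-1a by HTRF from RAW264.7 cells primed with Pam3CSK4 (5 hours) and transfected with LipidA (24 hour) after 48h siRNA knockdown at 100 nM; cell viability checked with CellTiter-Glo.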
(TR-FRET usually uses a lanthanide donor and a delayed reading to cut background.)
Consider GGAACUAAUGUGCAGGAGGTT against Suclg2, for which the z-score was inactive: 0.459.
The same measure for GGAUGAAGAAGAUGAAGAUTT against Prepl: active: -2.62; for GGCUGAAUCUUGAAAAUGATT against Cntnap1: inactive: -1.52; for CCGUUGUCAUGUUUUAAAGTT against Prdx6: inactive: -0.287.
As for GGCCUAUUUGUUUUUGAAATT against Mthfd2, the z-score was inactive: 1.45.
Take CCUCGAUAGGUUAGUGACATT against Fdxacb1: the z-score was inactive: -0.731.
With GGCUCUUCUAUUCUGAACUTT against Ly86, the z-score is inactive: 0.412.
For CGGUAAAUGGUCAAGAGUATT against Rheb the value was inactive: -0.16; for CCAGAAUGUCACUGCCAGUTT against Zfy1, inactive: 1.34; for GGAGUGAAAUCUCCUAAAATT against Tmsb10, inactive: -0.44.
GCUCCAACCCAAGAAAUUCTT against Hlx: the z-score was inactive: 1.01.
The same measure for GGAUCCUGAAAUCAAAACUTT against Mbl1: inactive: -0.316; for GGGUCAAUCAUGAAUGUUUTT against Pak4: inactive: -1.02; for GGAGGAGAUGAAUGCUCUGTT against Krt17: inactive: -1.98.
In the case of GGCCAAAGGGCAAAGUGAUTT against Plppr4, the z-score was inactive: 0.809.
GCCUUGUAUACACUUGUUATT against Mrps27: the z-score was inactive: 0.588.
For GGGAAAGAAAGUCAGCUCUTT against Ptprf the value was inactive: 0.341; for GGAAUUCCUAAUUACGAAUTT against Ufd1, inactive: -0.788.
As to GGAAGAGGUGGACAAGAUGTT against Gps2, the z-score was inactive: -0.621.
The same measure for GGUGUUUAAUUGCUCACUATT against Gramd4: inactive: 1.13; for GCUUUUUAGGCAUUGGUAATT against Lif: inactive: -0.0823.
Consider GGGCCACUUUCCAAUUCAATT against Tectb, for which the z-score is inactive: 0.817.
In the case of GUGGUUGUUUUCGUCCUUCTT against Olfr821, the z-score is inactive: 1.12.
The same measure for CGGUGGAAUUCGUUAGAAGTT against Ireb2: inactive: -0.183; for CCAAUGAAACUUCUAGACUTT against Gjb2: inactive: 0.451.
For the sequence GGUAACUGACUAAUGGAAGTT against Tcl1b4, the z-score was inactive: -0.638.
On to GCUAUGUCAUAUCAUCAAGTT against Adgrg2, for which the z-score was inactive: 0.532.
GGAGAAAAGCUGACCUUUGTT against Gstm5: the z-score is inactive: 0.218.
In the case of CAUUCCAACACUUCAAACUTT against Fbrsl1, the z-score is inactive: 0.154.
As for CCCAUGGAAUGAAAACAACTT against Gm4894, the z-score is active: 2.58.
